{
  "source": "patent US20200340060A1",
  "about": "“COMPOSITIONS AND METHODS FOR IDENTIFYING AND TREATING LIVER DISEASES AND MONITORING TREATMENT OUTCOMES” (Gilead Sciences, Inc., priority 2017, published 2020)",
  "experiment": "ELISA assays of circulating NASH secretome candidates, AUROC analysis",
  "set-up": "species or system human",
  "details": "clinical endpoint MRIPDFF",
  "data": [
    {"molecule": "EMILIN1 (protein, UniProt Q9Y6C2 22-1016, looked up) EMILIN-1: ASYPPRGFSLYTGSSGALSPGGPQAQIAPRPASRHRNWCAYVVTRTVSCVLEDGVETYVKYQPCAWGQPQCPQSIMYRRFLRPRYRVAYKTVTDMEWRCCQGYGGDDCAESPAPALGPASSTPRPLARPARPNLSGSSAGSPLSGLGGEGPGESEKVQQLEEQVQSLTKELQGLRGVLQGLSGRLAEDVQRAVETAFNGRQQPADAAARPGVHETLNEIQHQLQLLDTRVSTHDQELGHLNNHHGGSSSSGGSRAPAPASAPPGPSEELLRQLEQRLQESCSVCLAGLDGFRRQQQEDRERLRAMEKLLASVEERQRHLAGLAVGRRPPQECCSPELGRRLAELERRLDVVAGSVTVLSGRRGTELGGAAGQGGHPPGYTSLASRLSRLEDRFNSTLGPSEEQEESWPGAPGGLSHWLPAARGRLEQLGGLLANVSGELGGRLDLLEEQVAGAMQACGQLCSGAPGEQDSQVSEILSALERRVLDSEGQLRLVGSGLHTVEAAGEARQATLEGLQEVVGRLQDRVDAQDETAAEFTLRLNLTAARLGQLEGLLQAHGDEGCGACGGVQEELGRLRDGVERCSCPLLPPRGPGAGPGVGGPSRGPLDGFSVFGGSSGSALQALQGELSEVILSFSSLNDSLNELQTTVEGQGADLADLGATKDRIISEINRLQQEATEHATESEERFRGLEEGQAQAGQCPSLEGRLGRLEGVCERLDTVAGGLQGLREGLSRHVAGLWAGLRETNTTSQMQAALLEKLVGGQAGLGRRLGALNSSLQLLEDRLHQLSLKDLTGPAGEAGPPGPPGLQGPPGPAGPPGSPGKDGQEGPIGPPGPQGEQGVEGAPAAPVPQVAFSAALSLPRSEPGTVPFDRVLLNDGGYYDPETGVFTAPLAGRYLLSAVLTGHRHEKVEAVLSRSNQGVARVDSGGYEPEGLENKPVAESQPSPGTLGVFSLILPLQAGDTVCVDLVMGQLAHSEEPLTIFSGALLYGDPELEHA", "values": [
      {"measurement": "Median percent CHG at W24 in Non-improver", "value": "−2.8", "unit": "%"},
      {"measurement": "Median percent CHG at W24 in improver", "value": "−16.6", "unit": "%"}
    ]}
  ]
}
